This note sets out measurements from doi:10.1101/2024.06.18.599493.

By UniProt entry, the sequences of proteins in these tests, tags left out.
UniProt P09874: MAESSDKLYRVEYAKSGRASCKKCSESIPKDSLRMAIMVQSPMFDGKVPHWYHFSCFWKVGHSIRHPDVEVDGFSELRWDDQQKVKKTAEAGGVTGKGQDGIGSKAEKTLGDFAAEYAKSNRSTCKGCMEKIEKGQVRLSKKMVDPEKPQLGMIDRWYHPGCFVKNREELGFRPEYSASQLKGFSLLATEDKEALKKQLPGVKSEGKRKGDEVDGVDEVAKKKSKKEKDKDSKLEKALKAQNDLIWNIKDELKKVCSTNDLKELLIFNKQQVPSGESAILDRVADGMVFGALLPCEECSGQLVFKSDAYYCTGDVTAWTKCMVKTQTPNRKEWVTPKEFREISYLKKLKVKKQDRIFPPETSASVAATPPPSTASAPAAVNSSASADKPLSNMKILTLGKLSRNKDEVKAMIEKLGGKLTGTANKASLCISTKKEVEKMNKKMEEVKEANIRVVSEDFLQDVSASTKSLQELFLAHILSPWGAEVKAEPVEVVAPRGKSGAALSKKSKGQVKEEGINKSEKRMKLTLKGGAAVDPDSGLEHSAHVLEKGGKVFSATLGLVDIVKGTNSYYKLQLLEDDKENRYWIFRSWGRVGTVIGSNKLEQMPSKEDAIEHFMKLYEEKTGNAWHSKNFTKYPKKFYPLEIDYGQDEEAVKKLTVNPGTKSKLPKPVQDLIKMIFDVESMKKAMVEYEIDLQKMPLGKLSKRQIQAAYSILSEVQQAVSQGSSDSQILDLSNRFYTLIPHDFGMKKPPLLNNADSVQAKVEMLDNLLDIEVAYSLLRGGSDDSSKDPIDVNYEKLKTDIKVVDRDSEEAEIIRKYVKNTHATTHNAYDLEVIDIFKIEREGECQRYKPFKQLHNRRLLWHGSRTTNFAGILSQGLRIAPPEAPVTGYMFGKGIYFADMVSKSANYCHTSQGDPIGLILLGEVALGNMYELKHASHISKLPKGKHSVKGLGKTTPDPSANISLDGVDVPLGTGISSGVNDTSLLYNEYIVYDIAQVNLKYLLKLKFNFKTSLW
UniProt P67809: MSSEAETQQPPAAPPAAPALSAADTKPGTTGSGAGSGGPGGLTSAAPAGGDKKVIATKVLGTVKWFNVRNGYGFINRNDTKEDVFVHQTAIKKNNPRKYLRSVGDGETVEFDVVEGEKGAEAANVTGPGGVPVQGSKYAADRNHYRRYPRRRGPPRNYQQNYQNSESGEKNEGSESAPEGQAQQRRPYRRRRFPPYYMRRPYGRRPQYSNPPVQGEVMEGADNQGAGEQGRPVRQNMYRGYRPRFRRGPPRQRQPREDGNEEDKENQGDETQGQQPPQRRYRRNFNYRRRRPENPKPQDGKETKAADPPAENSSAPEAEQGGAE

For test [1], the target named is PARP1 (human (endogenous in HEK293T or HeLa)) (UniProt P09874). Briefly: proximity ligation.
The target in test [2] is YFP-tagged PARP1 (UniProt P09874). Briefly: co-IP.

No constants are given. Whether binding was seen depends on the method and setting. In cells and extracts the contact can be indirect. Some results given as binding are weak or reduced against the parent protein; the word gives no strength.

For the substance “Y-Box Binding Protein 1 (YBX1) (from UniProt P67809 1-324)”, the binding entry in test [1] and in test [2] was “binds” in each case.
